No constants are given. Whether binding was seen depends on the method and setting. Binding seen in cells or lysates may run through a third protein. Some binding calls cover weakened binding; strength is not graded here.

The chains behind the UniProt entries cited, without tags or fusion partners. Residues count along the entry.
UniProt P21926: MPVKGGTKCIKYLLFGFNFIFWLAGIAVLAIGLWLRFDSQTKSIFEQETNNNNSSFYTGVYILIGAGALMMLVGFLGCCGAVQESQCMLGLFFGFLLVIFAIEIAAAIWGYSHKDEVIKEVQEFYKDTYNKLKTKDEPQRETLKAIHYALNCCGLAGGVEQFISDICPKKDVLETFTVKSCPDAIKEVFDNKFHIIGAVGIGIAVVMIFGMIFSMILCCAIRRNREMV
UniProt P38646, residues 47-679: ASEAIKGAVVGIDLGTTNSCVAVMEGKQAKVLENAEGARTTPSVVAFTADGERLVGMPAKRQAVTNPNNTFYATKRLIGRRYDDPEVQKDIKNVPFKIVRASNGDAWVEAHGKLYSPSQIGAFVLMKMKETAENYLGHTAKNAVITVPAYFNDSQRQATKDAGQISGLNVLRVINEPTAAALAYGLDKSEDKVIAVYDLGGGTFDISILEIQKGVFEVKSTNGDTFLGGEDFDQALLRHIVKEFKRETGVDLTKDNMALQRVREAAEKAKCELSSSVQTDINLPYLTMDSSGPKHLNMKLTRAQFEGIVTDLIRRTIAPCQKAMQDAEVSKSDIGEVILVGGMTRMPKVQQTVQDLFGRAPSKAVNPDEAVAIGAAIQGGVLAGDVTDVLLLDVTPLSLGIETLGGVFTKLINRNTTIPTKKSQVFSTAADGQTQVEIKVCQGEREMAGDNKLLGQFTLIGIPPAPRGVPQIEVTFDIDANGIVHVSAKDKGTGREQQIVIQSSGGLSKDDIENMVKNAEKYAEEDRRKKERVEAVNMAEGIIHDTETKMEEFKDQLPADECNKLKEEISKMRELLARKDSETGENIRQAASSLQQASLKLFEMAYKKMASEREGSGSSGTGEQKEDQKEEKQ

In test [1] the target is Cluster-of-differentiation antigen 9 (CD9) (human (endogenous in PC-3 and PC-3M-LN4)) (UniProt P21926). Briefly: co-IP; 1% Brij 97 lysates of PC-3, PC-3M-LN4 and PC-3M-LN4CD9-40 cells immunoprecipitated with CD9 mAb (or mouse IgG), blot with mortalin mAb.
Test [2] concerns the target exogenous wild-type CD9 (pcDNA3.1/Myc-HisA-CD9 wild-type construct) (UniProt P21926). The description is as above.
For test [3], the target named is HSPA9B protein, also known as mortalin (human (endogenous in PC-3 and PC-3M-LN4)) (UniProt P38646). Briefly: co-IP; 1% Brij 97 lysate immunoprecipitated with mortalin mAb, blot with CD9 mAb.

With “HSPA9B protein, also known as mortalin (from UniProt P38646 47-679)”, the binding result in test [1] and in test [2] was “binds” throughout.
As to “Cluster-of-differentiation antigen 9 (CD9) (from UniProt P21926 1-228)”, in test [3], the binding result is given as “binds”.

For the origin of these results see PMC2360413.
